# Record: PubChem BioAssay AID743454 (Peter MacCallum Cancer Centre, 2014)
# Aim: 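Genes whose loss kills vorinostat-resistant colon cancer cells under vorinostat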 (primary screen)
# System: human HCT116-VR colon cancer cells, selected for vorinostat resistance
# Knock-down reagent: siRNA pool against human genes, 40 nM siRNA pool
# Time to read-out: vorinostat for 24 h, read-out about 72 h after transfection
# Treatment: vorinostat at 2.5 µM final
# Measurement: 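Cell viability by CellTiter-Fluor and caspase 3/7 activity by luminescence, each scaled to mock wells per plate, duplicates averaged, then robust z-scored over all plates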
# Scale: viability robust z-score: higher = more viable cells than screen typical; caspase robust z-score: higher = more caspase 3/7 activity than screen typical
# Hit rule: 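Hits are knock-downs in viability class RV1/RV2 or caspase class CA1/CA2, excluding ones that killed cells in the no-drug cell-count arm; hits then retested with single siRNAs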
# Shown is a random part of about 18,000 reagents. 450 of all reagents (2.5%) count as active. 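Single biological run; no consistent viability z cut-off exists, so the class columns, not z-scores, define the calls.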
gene,viability hit class,caspase hit class,viability robust z-score,caspase robust z-score,Outcome
MAPK14,no change,no change,0.38,-0.42,inactive
FXN,no change,no change,0.44,-0.91,inactive
SLC6A1,no change,no change,0.77,-0.34,inactive
ADAMTSL2,no change,no change,0.18,-0.81,inactive
FGF1,no change,no change,-0.32,3.95,inactive
PAFAH1B2,no change,no change,0.36,1.62,inactive
MKRN1,no change,no change,0.73,-0.52,inactive
GLE1,no change,no change,-0.02,3.64,inactive
PGBD5,no change,no change,0.76,0.51,inactive
POLR1A,no change,no change,-1.21,0.72,inactive
RPF1,no change,no change,-1.45,0.08,inactive
GINS4,no change,no change,-1.56,0.38,inactive
ZNF329,no change,no change,0.94,1.21,inactive
CLOCK,no change,no change,-1.05,4,inactive
DYNLRB2,no change,no change,-0.02,-0.06,inactive
CRB1,no change,no change,2.38,0.32,inactive
BROX,no change,no change,-0.73,1.05,inactive
ATG2B,no change,no change,0.22,-0.8,inactive
PHC1,no change,no change,-0.67,-0.45,inactive
OR2T34,no change,no change,-1.64,2.06,inactive
CALML6,no change,no change,1.14,-0.12,inactive
CTAGE15,no change,no change,-1.17,-0.34,inactive
ASB16-AS1,no change,no change,-0.81,-0.84,inactive
HECW1,no change,no change,0.38,-0.7,inactive
MTUS2,no change,no change,-0.68,0.98,inactive
STX1A,no change,no change,-0.5,0.62,inactive
FBXO30,no change,no change,-2.67,1.19,inactive
PLEKHB1,RV2 (reduced viability),CA2 (caspase activation),-3.42,5.64,active
CRYL1,no change,no change,0.76,-0.09,inactive
ATP1A3,no change,no change,-0.23,-0.5,inactive
PI4KAP2,no change,no change,-0.32,2.27,inactive
BTBD3,no change,no change,0.9,0.11,inactive
SLC6A13,no change,no change,-0.58,-0.15,inactive
GRIN2D,no change,no change,-0.31,-0.58,inactive
CYRIA,no change,no change,-0.9,0,inactive
TRMT10C,no change,no change,0.38,-0.84,inactive
UQCC4,no change,no change,-0.64,-0.88,inactive
TNFRSF10D,no change,no change,-0.65,1.49,inactive
SSH3,no change,no change,0,3.04,inactive
LCE3E,no change,no change,0.9,-0.15,inactive
PACRGL,no change,no change,0.22,1.96,inactive
MED8,no change,no change,-0.76,2.35,inactive
CCDC185,no change,no change,-0.92,-0.76,inactive
RPS5,no change,no change,-3.15,-0.84,inactive
TENT4B,no change,no change,0.76,-0.03,inactive
DYNC1LI2,no change,no change,0.74,-0.29,inactive
MRGPRX4,no change,no change,0.1,0.61,inactive
THYN1,no change,no change,0.7,0.3,inactive
APOL6,no change,no change,2.21,-0.45,inactive
SBF2,no change,no change,-0.42,-0.15,inactive
PLA2G1B,no change,no change,-0.46,0.32,inactive
ULBP1,no change,no change,-1.19,-0.72,inactive
OVCA2,no change,no change,0.35,-0.62,inactive
FCGR2B,no change,no change,-2.62,-1.02,inactive
PFAS,no change,no change,-0.87,-0.43,inactive
SERPINA10,no change,no change,-0.68,-0.77,inactive
GGH,no change,no change,-0.88,-0.03,inactive
OR11H6,no change,no change,-0.91,-0.2,inactive
PRG2,no change,no change,-1.32,5.12,inactive
ABHD16B,no change,CA1 (caspase activation),-0.99,5.48,active
BCAT2,no change,no change,0.29,-0.97,inactive
SHISA4,no change,no change,-0.64,-0.76,inactive
KRR1,no change,no change,0.94,0.36,inactive
GARS1,no change,no change,-0.45,-0.7,inactive
S100A7P3,no change,no change,0,-0.06,inactive
LINC00452,no change,no change,-0.41,-0.27,inactive
GGCX,no change,no change,0.74,0.95,inactive
MPP7,no change,no change,1.04,-0.53,inactive
OR1F1,no change,no change,-1.21,0.02,inactive
ADGRE3,no change,no change,-0.39,-0.6,inactive
KLHL4,no change,no change,0.75,-0.79,inactive
OR6C75,no change,no change,0.04,1.36,inactive
PLEKHA4,no change,no change,-1.02,2.49,inactive
